Measurements reported in patent US20140050719A1.
These are yes or no findings as the source states them, for the method shown. Some binding calls cover weakened binding; strength is not graded here.

Protein sequences, listed by entry. Tags and fused reporters are not part of them. Residues count along the entry.
UniProt P05067, residues 672-711: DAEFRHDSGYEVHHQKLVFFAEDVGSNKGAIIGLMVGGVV

B1: 2E7 humanised variant H1L1 (antibody, human IgG1, kappa, V domains shown)
VH: EVQLVESGGGLVQPGGSLRLSCAASGFTFSDNGMAWVRQAPGKGLEWVSFISNLAYSIDYADTVTGRFTISRDNAKNSLYLQMNSLRAEDTAVYYCVSGTWFAYWGQGTLVTVSS
VL: DIVMTQSPLSLPVTPGEPASISCRVSQSLLHSNGYTYLHWYLQKPGQSPQLLIYKVSNRFSGVPDRFSGSGSGTDFTLKISRVEAEDVGVYYCSQTRHVPYTFGGGTKVEIKR
B2: 2E7 humanised variant H3L1 (antibody, human IgG1, kappa, V domains shown)
VH: EVQLVESGGGLVQPGGSLRLSCAASGFTFSDNGMAWVRQAPGKGLEWISFISNLAYSIDYADTVTGRFTISRDNAKNSLYLQMNSLRAEDTAVYYCVSGTWFAYWGQGTLVTVSS
VL: DIVMTQSPLSLPVTPGEPASISCRVSQSLLHSNGYTYLHWYLQKPGQSPQLLIYKVSNRFSGVPDRFSGSGSGTDFTLKISRVEAEDVGVYYCSQTRHVPYTFGGGTKVEIKR
B3: 2E7 humanised variant H2L1 (antibody, human IgG1, kappa, V domains shown)
VH: EVQLVESGGGLVQPGGSLRLSCAVSGFTFSDNGMAWVRQAPGKGLEWVSFISNLAYSIDYADTVTGRFTISRDNAKNSLYLQMNSLRAEDTAVYYCVSGTWFAYWGQGTLVTVSS
VL: DIVMTQSPLSLPVTPGEPASISCRVSQSLLHSNGYTYLHWYLQKPGQSPQLLIYKVSNRFSGVPDRFSGSGSGTDFTLKISRVEAEDVGVYYCSQTRHVPYTFGGGTKVEIKR

Target: human Aβ peptide (form not stated) (human) (UniProt P05067)
Assay: ELISA with supernatants of transiently transfected CHOK1 cells

binding, binds:
B1
B2
B3
